About 25 (2%) of roughly 1,600 compounds were called active. Inconclusive results (about 7%) are left out. Calls follow the shape of the dose curve; as a rule, active = well fitted inhibition curve with a large enough effect; inconclusive = small, poorly fitted or top-dose-only effect, or effect the other way; inactive = no such curve, though single readings can be large or run the other way. This is one part of the list.
% is scaled to controls: 0 for no effect and ±100 for the full control effect; potency is read from the fitted curve at half-maximal effect.

Chains of the proteins cited; added tags and fusions are not shown.
UniProt Q01196, whole entry, looked up: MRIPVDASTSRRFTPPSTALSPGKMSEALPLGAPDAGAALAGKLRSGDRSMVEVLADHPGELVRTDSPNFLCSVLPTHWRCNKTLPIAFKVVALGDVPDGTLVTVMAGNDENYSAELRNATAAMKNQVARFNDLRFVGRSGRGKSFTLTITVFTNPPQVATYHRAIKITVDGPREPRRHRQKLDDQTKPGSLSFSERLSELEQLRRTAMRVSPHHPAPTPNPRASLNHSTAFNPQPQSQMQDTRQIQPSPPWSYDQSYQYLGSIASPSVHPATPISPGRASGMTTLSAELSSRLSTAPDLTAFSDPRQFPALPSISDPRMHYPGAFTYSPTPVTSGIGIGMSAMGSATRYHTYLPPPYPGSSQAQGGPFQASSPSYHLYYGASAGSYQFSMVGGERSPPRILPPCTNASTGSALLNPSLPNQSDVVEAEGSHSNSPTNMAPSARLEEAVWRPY
UniProt Q13951, whole entry, looked up: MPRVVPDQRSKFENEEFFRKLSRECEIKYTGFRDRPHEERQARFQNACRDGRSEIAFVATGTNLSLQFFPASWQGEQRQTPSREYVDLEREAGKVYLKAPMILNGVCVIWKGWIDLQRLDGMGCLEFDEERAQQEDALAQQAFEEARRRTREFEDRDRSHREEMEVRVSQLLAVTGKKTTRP

This assay addresses Runt-related transcription factor 1 (Homo sapiens) + Core-binding factor subunit beta (Homo sapiens) (UniProt Q01196+Q13951). In words: qHTS Assay for Compounds Blocking the Interaction Between CBF-beta and RUNX1 for the Treatment of Acute Myeloid Leukemia: Hit Validation with Orthogonal Assay. As to conditions: CBFbeta-RUNX1 binding orthogonal assay, biochemical; series mostly up to 41 µM; activity change, negative = inhibition: at the top concentration. From the text:
NIH Chemical Genomics Center [NCGC]
NIH Molecular Libraries Probe Production centers Network [MLPCN]
Assay Submitter (PI): Paul Liu
Core Binding Factor (CBF) abnormalities are associated with 20-25% of all acute myeloid leukemias (AML), of which 5-10% are further sub classified as acute myelomonocytic leukemia with eosinophilia, also known as M4Eo in the FAB classification scheme. This subtype of leukemia is usually associated with chromosome 16 inversion (p13:q22). Chromosome 16 inversion results in formation of the fusion oncogene CBFB-MYH11, which encodes the fusion protein CBF-beta-SMMHC.
It has been hypothesized that the interference of CBF-beta and RUNX1 binding could have therapeutic implications for patients with CBF mediated leukemias. We developed a CBF-beta and RUNX1 binding assay in AlphaScreenTM format and optimized it for high throughput screening to search for inhibitors. The goal of this project is to screen MLPCN's compound collection (MLSMR) for identifying the inhibitors of the interaction between CBF-beta and RUNX1 proteins as research probes. If these probes work well in the animal models, the ultimate goal of this project is to development a new drug treatment for this disease.
This assay can not be used to assess how apparent inhibitors interfere with protein binding, and whether inhibitors specifically bind to either protein. Disruption of this protein-protein interaction, through any mechanism, is the intended target activity.
The present data set was run to confirm the activity of hits from the primary screen using an orthogonal assay technology for measuring protein-protein interaction disruption.
A TR-FRET (time resolved fluorescence resonance energy transfer) assay was performed using the same assay buffer, protein concentrations and incubation times as described previously in the AlphaScreen assay, except that terbium (Tb+) labeled anti-his-antibody and XL665 linked streptavidin were used to capture the binding signal. The Tb+ labeled anti-his-antibody captures His(6)-CBF and XL665 linked streptavidin binds to biotin-RUNX1. The binding of RUNX1 to CBFbrings Tb+ and XL665 to proximity resulting in a TR-FRET signal. Briefly, in a white 384-well plate, 10 µl/well of mixture of biotin-RUNX1 and His(6)-CBFwere incubated with 10 µl/well buffer (positive control) or 10 µl/well compounds (negative control) for 20 min followed by an addition of 10 µl/well of Tb+ labeled anti-his(6)-antibody and XL665 linked streptavidin. After 90 min of incubation in the dark, the assay plate was measured in the Envision plate reader using TR-FRET detection mode. For the 1536-well plate format, 3 µl/well mixture of biotin-RUNX1 and His(6)-CBF (30 nM per protein) was incubated with 23 nl/well compound (dissolved in 100% DMSO) or the equivalent DMSO concentration (positive control) for 30 min followed by the addition of 1 µl/well of 0.44 ng Tb+ labeled anti-his(6)-antibody and 5 nM streptavodin-XL665. After 90 min of incubation, the assay plate was measured in the Envision plate reader.
The TR-FRET assay for detecting interaction between HIV-I Tat and […] was similarly performed with the recombinant full-length HIV-I Tat CLADE B and HIV-I Tat Biotin conjugated proteins supplied by Diatheva (Fano, Italy). Briefly, the His-CBF and Biotin-RUNX1 complex at a working concentration of 83.3 nM per protein were pre-incubated in assay buffer for 10 minutes on ice. Then HIV-I Tat or unlabeled CBF were added to reach final concentrations (Supplementary Figure 4b) and incubated for 5 minutes. Finally anti-His antibody and streptavidin-XL665 at a final concentration of 2.2 ng and 5 nM, respectively, were added to the plate, which was incubated for 1 hr prior to reading on the PerkinElmer Envision plate reader.
Keywords: MLSMR, MLPCN, NIH Roadmap, qHTS, NCGC, Core binding factor, CBF, CBF-beta, Acute myeloid leukemia
In general terms: Quantitative high-throughput screening tests each substance at several concentrations.
For `COCc1cc(=O)n2[nH]c(-c3ccco3)cc2n1`, the “activity change, negative = inhibition” value was inactive: 4.87%.
On to `CC(C)COC(=O)NC1c2ccccc2Oc2ccccc21`, for which the “activity change, negative = inhibition” value was inactive: 6.52%.
Still for that read-out and setting: under `CC(C)(C)c1csc(Sc2ccc([N+](=O)[O-])cn2)n1` stands inactive: 42.4%.
`Cn1c(NC(=O)c2ccc(F)cc2)c(-c2cccs2)c(=O)c2ccccc21`: the “activity change, negative = inhibition” value was inactive: 7.39%.
As to `O=C(Cc1n[nH]c(=O)c2ccccc12)OCc1c(Cl)cccc1Cl`, the “activity change, negative = inhibition” value is inactive: 12.9%.
Same read-out and setting: under `COc1ccc(-c2nnsc2N2C(=O)c3ccccc3C2=O)cc1` stands inactive: 14.2%; under `O=C(CN1CCN(S(=O)(=O)c2ccc(Cl)s2)CC1)N1CCOCC1`, inactive: 10.6%.
Turning to `CC(=O)/C=C(\C)N=Nc1c(O)[nH]c2ccccc12`, the “activity change, negative = inhibition” value is inactive: 21.1%.
For the compound `O=C1c2ccccc2C(=O)N1/N=C/c1ccc(O)c(O)c1O`, the Potency is active: 2.82 µM.
As for `CC(C)N(Cc1ccccc1)C(=O)c1ccc2nsnc2c1`, the “activity change, negative = inhibition” value is inactive: 18%.
As for `COc1ccc(C(=O)NC(=S)NNC(=O)c2c(-c3ccccc3)noc2C)cc1OC`, the “activity change, negative = inhibition” value was inactive: 1.53%.
Regarding `CCOC(=O)CSc1nnc(Cn2nnc3ccccc32)n1-c1ccc(F)cc1`, the “activity change, negative = inhibition” value was inactive: -7.13%.
As for `Cc1nc(-c2ccc3c(c2)CCC(=O)N3)cs1`, the “activity change, negative = inhibition” value was inactive: 11.6%.
Regarding `O=C(N/N=C/C1=Cc2ccccc2OC1)c1ccncc1`, the “activity change, negative = inhibition” value is inactive: 29.3%.
The same measure, in the same setting: under `COc1cc(OC)c(OC)cc1/C=N/NC(=O)CCc1c(C)n[nH]c1C` stands inactive: 18.8%.
As for `CC(C)(C)Sc1ccc([N+](=O)[O-])cc1C(=O)Nc1ccncc1`, the “activity change, negative = inhibition” value was inactive: 29.8%.
Same read-out and setting: under `O=C(Oc1c(-c2ccccc2)c(=O)n2c3c(cccc13)CC2)c1ccc(F)cc1` stands inactive: 6.68%; under `COc1cccc(NC(=O)C(=O)NCCc2ccc(F)cc2)c1`, inactive: 1.5%; under `Nc1ncnc2c1ncn2C1OC(CO)C(O)C1N` (stereo unspecified), inactive: -6.45%.
Still for that read-out and setting: under `Cc1ccc(C(=O)COc2cc(C)nc3nncn23)cc1` stands inactive: -2.28%; under `Cc1ccnn1CC(=O)N/N=C/c1cn[nH]c1-c1ccc(F)cc1`, inactive: 2.29%; under `O=C(NNC(=O)C(Cl)Cl)c1cnn(-c2ccccc2)c1C(F)(F)F`, inactive: 1.06%.
Same read-out and setting: the value for `COc1cccc(Nc2ncc(C#N)c(N)n2)c1` was inactive: 10%; that for `Clc1c(Cl)c(Cl)c2n[nH]nc2c1Cl` was inactive: 4.26%; that for `COc1ccccc1C1CCN(C(=O)c2cccs2)CC1` was inactive: 1.7%.
In the case of `Cc1nn(-c2ccccc2)nc1-c1nnc(-c2ccc(C(F)(F)F)cc2)o1`, the “activity change, negative = inhibition” value was inactive: -5.37%.
In the case of `CCN(CC)C(=N)/C(C#N)=N/Nc1ccc(C)cc1`, the “activity change, negative = inhibition” value was inactive: 38.4%.
Same read-out and setting: under `CCCc1c(NC(=O)Nc2ccc(F)cc2)cnn1-c1ccccc1` stands inactive: -5.71%.
`CC(=O)Nc1ccc(S(=O)(=O)Nc2ccc(C(=O)NCC(=O)O)cc2)cc1`: the “activity change, negative = inhibition” value is inactive: 14.8%.
Same read-out and setting: the value for `Cc1cc(NC(=O)c2c(-c3c(F)cccc3Cl)noc2C)no1` was inactive: -9.43%.
`COc1cc(NC(N)=S)c(OC)cc1Cl`: the “activity change, negative = inhibition” value is inactive: 0.171%.
With `CCOc1ccc(N=C/C=C/c2ccccc2)c(O)c1`, the “activity change, negative = inhibition” value is inactive: 15.7%.
`CNC(=O)COC(=O)c1ccc(Cl)c(S(N)(=O)=O)c1`: the “activity change, negative = inhibition” value is inactive: -2.83%.
With `CCOc1ccc(/C=C2\CCc3ccccc3C2=O)cc1`, the “activity change, negative = inhibition” value was inactive: 8.98%.
Take `COc1ccccc1N1C(=O)[C@@H]2[C@H](C1=O)[C@H](C(=O)c1ccc(OC(C)=O)cc1)N1N=CC=C[C@@H]21`: the “activity change, negative = inhibition” value was inactive: 21.1%.
`CCC1(CC)Nc2ccccc2C(=O)N1c1ccc(OC)cc1`: the “activity change, negative = inhibition” value is inactive: -1.48%.
Same read-out and setting: under `O=C(Nc1ccc(C(F)(F)F)cn1)Nc1cccs1` stands inactive: 13.6%; under `Clc1ccc(CSc2nncn2-c2ccc3c(c2)OCCO3)cc1`, inactive: 0.758%.
For the compound `COc1ccccc1C1CCN(C(=O)c2ccco2)CC1`, the “activity change, negative = inhibition” value was inactive: 13.8%.
The same measure, in the same setting: the value for `CCCSc1sc(C(=O)OC)c(-c2cccs2)c1C#N` was inactive: 22.2%; that for `c1ccc(-c2nnc(-c3ccccn3)nc2NC2CCCCC2)cc1` was inactive: -3.48% [at 82.4 µM]; that for `COc1ccc(OS(=O)(=O)c2c(C)noc2C)cc1` was inactive: 14.1%.
With `CC(C)(C)c1ccc(NC(=O)c2ccsc2)cc1`, the “activity change, negative = inhibition” value is inactive: 12.4%.
Still for that read-out and setting: under `NS(=O)(=O)c1ccc(N/N=C/c2ccc(C(=O)O)cc2)c([N+](=O)[O-])c1` stands inactive: 94.8%.
`COC(=O)c1ccc(C(=O)NN)cc1`: the “activity change, negative = inhibition” value is inactive: 6.01%.
Regarding `Cn1c(=O)c2c(nc(N3CCOCC3)n2C/C=C/c2ccccc2)n(C)c1=O`, the “activity change, negative = inhibition” value was inactive: -3.46%.
With `CCOC(=O)CC(=O)CSc1nc(CC)c(C)cc1C#N`, the “activity change, negative = inhibition” value was inactive: 22.5%.
Still for that read-out and setting: the value for `O=C(Nc1ccc(Cl)cc1)N1CCCC(Cn2cccc2)C1` (stereo unspecified) was inactive: -9.6%.
Regarding `COc1cc(NC(=S)NCCO)c(OC)cc1Cl`, the “activity change, negative = inhibition” value is inactive: -0.0734%.
On to `CC[C@H](C)[C@H](NC(=O)c1ccccc1)C(=O)Nc1ccc(S(=O)(=O)Nc2cc(C)nc(C)n2)cc1`, for which the “activity change, negative = inhibition” value is inactive: -7.81%.
For the compound `Cc1ccc(/C(O)=C/C(=O)C(=O)NC23CC4CC(CC(C4)C2)C3)cc1`, the “activity change, negative = inhibition” value was inactive: -1.96%.
The same measure, in the same setting: under `CCCCCCCc1c(O)nc(SCC(=O)O)[nH]c1=O` stands inactive: 7%; under `CCCC1=NN(C(=O)Cc2ccc(OC)c(OC)c2)C(O)(C(F)(F)F)C1` (stereo unspecified), inactive: 0.648%; under `COC(=O)Cc1cccc2c(=O)c3ccccc3oc12`, inactive: 8.11%.
On to `Clc1ccc(Nc2cc(-c3ccccc3)nc3ncnn23)cc1`, for which the “activity change, negative = inhibition” value is inactive: -2.73%.
The same measure, in the same setting: the value for `COC(=O)[C@H](CCSC)NC(=O)Nc1cc(OC)cc(OC)c1` was inactive: -10.5%; that for `COCc1cc(=O)[nH]c2c1c(-c1ccccc1)nn2C` was inactive: -2.96%; that for `Cc1ccc(S(=O)(=O)NNC(=O)c2cnn(-c3ccc(Cl)cc3)c2C(F)(F)F)cc1` was inactive: 7.1%.
On the same count and under the same terms, under `O=P(O)(O)c1cc(-c2ccccc2)oc1-c1ccccc1` stands inactive: 5.32%; under `S=C(Nc1ccccc1)N1CCCN1c1ccccc1`, inactive: 3.85%.
On the same count and under the same terms, the value for `COC(=O)c1c(NS(=O)(=O)c2ccccc2)csc1C` was inactive: 0.55%; that for `CCOc1ccc(-c2noc(-c3cccnc3)n2)cc1OCC` was inactive: 2.13%; that for `Clc1ccc(/C=C/c2nc(Cl)c(-c3ccc(Cl)cc3)c(Cl)n2)cc1` was inactive: 4.77%.
Take `CCc1nc2ccccc2nc1N1CCN(S(=O)(=O)c2ccc(Cl)cc2)CC1`: the “activity change, negative = inhibition” value was inactive: 0.844%.
The same measure, in the same setting: under `CC1CN(S(=O)(=O)c2cccc(C(F)(F)F)c2)CC(C)O1` (stereo unspecified) stands inactive: -18.1%.
The same measure, in the same setting: the value for `Cc1onc(-c2c(F)cccc2Cl)c1C(=O)Nc1ccccc1N1CCOCC1` was inactive: -8.27%; that for `NC(=O)CNC(=O)c1cccc(Cl)c1` was inactive: -0.196%.
As for `CCOC(=O)C1CCCN(C(=O)Nc2c(-c3ccccc3)noc2C)C1` (stereo unspecified), the “activity change, negative = inhibition” value is inactive: 10.8%.
On the same count and under the same terms, the value for `CCOC(=O)/C=C(\C)Sc1cc(O)c2ccccc2c1O` was inactive: 66.2%; that for `CCCCOC(=O)CCc1c(C)n[nH]c1C` was inactive: -0.0856%.
The same measure, in the same setting: the value for `O=C(COc1ccc(Cl)cc1)N(Cc1ccco1)C1CCS(=O)(=O)C1` (stereo unspecified) was inactive: -7.45%.
Still for that read-out and setting: under `O=C(O)CC(CCc1ccccc1)OC1OC(CO)C(O)C(O)C1O` (stereo unspecified) stands inactive: -29.1%; under `Cc1ccn(C)c(=N)c1`, inactive: -5.75%.
As to `CCOC(=O)N1CCc2c(sc(N)c2C#N)C1`, the “activity change, negative = inhibition” value is inactive: 8.69%.
Same read-out and setting: under `OCCNc1nc2ccccc2nc1NCCO` stands inactive: 0.991%.
On the same count and under the same terms, the value for `CCn1nc(NC(=O)Cc2ccc(OC)cc2)c2cc3cc(C)ccc3nc21` was inactive: 21%.

The record behind these values is PubChem BioAssay AID504375 (National Center for Advancing Translational Sciences (NCATS), 2011).
